The test has as its system HuT78. Put plainly: Antiproliferative activity against human HUT78 cells after 72 hrs by WST-1 assay. Format: functional. A digest of the protocol: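 Cells seeded at (1-5) × 10³/well in serum-containing medium for 24 h at 37 °C, 5% CO₂. Inhibitor added at 0.6-10000 nM for 72 h, with WST-1 pulse over the final 4 h. Formazan read at 450 nm (reference 650 nm). Expressed as % inhibition of vehicle response; GI50 is the concentration inhibiting 50% of vehicle response; n = 6 replicates.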
In general terms: Tetrazolium dyes change colour on reduction, which living cells bring about.

Our source for the GI50 values is ChEMBL document CHEMBL1800056, “Discovery of 2-(6-{[(6-fluoroquinolin-2-yl)methyl]amino}bicyclo[3.1.0]hex-3-yl)-N-hydroxypyrimidine-5-carboxamide (CHR-3996), a class I selective orally active histone deacetylase inhibitor” (J Med Chem, 2010).

What is called GI50 is the concentration that inhibits growth by half.

Turning to `O=C(CCCCCCC(=O)Nc1ccccc1)NO` [VORINOSTAT], growth was halved (GI50) at 295 nM. This lies in the sub-micromolar range.
